# The list shows a part of the results.
# B1: DC-Sign-R (Homo sapiens), Q9H2X3 (protein)
# chain: MSDSKEPRVQQLGLLEEDPTTSGIRLFPRDFQFQQIHGHKSSTGCLGHGALVLQLLSFMLLAGVLVAILVQVSKVPSSLSQEQSEQDAIYQNLTQLKAAVGELSEKSKLQEIYQELTQLKAAVGELPEKSKLQEIYQELTRLKAAVGELPEKSKLQEIYQELTRLKAAVGELPEKSKLQEIYQELTRLKAAVGELPEKSKLQEIYQELTELKAAVGELPEKSKLQEIYQELTQLKAAVGELPDQSKQQQIYQELTDLKTAFERLCRHCPKDWTFFQGNCYFMSNSQRNWHDSVTACQEVRAQLVVIKTAEEQNFLQLQTSRSNRFSWMGLSDLNQEGTWQWVDGSPLSPSFQRYWNSGEPNNSGNEDCAEFSGSGWNDNRCDVDNYWICKKPAACFRDE
# Experiments:
# Assay in all cases: glycan array binding signal (z-score within array); higher = stronger binding
# Settings in all cases: glycan notation: IUPAC condensed, linker removed
# [1] = target: GlcNAc(b1-3)Gal(b1-4)GlcNAc(b1-3)[GlcNAc(b1-3)Gal(b1-4)GlcNAc(b1-3)]GalNAc
# How it was run: (§1)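 The Consortium for Functional Glycomics database supplied 3228 glycan arrays, of which those lacking an available protein sequence were dropped. The binding signal, a within-array Z-score, was averaged across arrays of the same protein sequence and across linkers. Negative scores can be read as non-binding.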
# [2] = target: GlcNAc(b1-3)Gal(b1-4)GlcNAc(b1-6)[Gal(b1-3)]GalNAc
# How it was run: as §1
# [3] = target: GlcNAc(b1-3)Gal(b1-4)GlcNAc(b1-6)[GlcNAc(b1-3)Gal(b1-3)]GalNAc
# How it was run: as §1
# [4] = target: GlcNAc(b1-3)Gal(b1-4)GlcNAc(b1-6)[GlcNAc(b1-3)]Gal(b1-4)GlcNAc
# How it was run: as §1
# GlcNAc(b1-3)GalNAc = target: GlcNAc(b1-3)GalNAc
# How it was run: as §1
# GlcNAc(b1-3)Man = target: GlcNAc(b1-3)Man
# How it was run: as §1
# [5] = target: GlcNAc(b1-3)[GlcNAc(b1-4)][GlcNAc(b1-6)]GlcNAc
# How it was run: as §1
# [6] = target: GlcNAc(b1-3)[GlcNAc(b1-6)]Gal(b1-4)GlcNAc
# How it was run: as §1
# [7] = target: GlcNAc(b1-3)[GlcNAc(b1-6)]GalNAc
# How it was run: as §1
# [8] = target: GlcNAc(b1-4)Gal(b1-4)GlcNAc
# How it was run: as §1
# GlcNAc(b1-4)GlcNAc = target: GlcNAc(b1-4)GlcNAc
# How it was run: as §1
# [9] = target: GlcNAc(b1-4)GlcNAc(b1-4)GlcNAc
# How it was run: as §1
# [10] = target: GlcNAc(b1-4)GlcNAc(b1-4)GlcNAc(b1-4)GlcNAc(b1-4)GlcNAc
# How it was run: as §1
# [11] = target: GlcNAc(b1-4)GlcNAc(b1-4)GlcNAc(b1-4)GlcNAc(b1-4)GlcNAc(b1-4)GlcNAc
# How it was run: as §1
# [12] = target: GlcNAc(b1-4)[GlcNAc(b1-6)]GalNAc
# How it was run: as §1
# [13] = target: GlcNAc(b1-6)Gal(b1-4)GlcNAc
# How it was run: as §1
# GlcNAc(b1-6)GalNAc = target: GlcNAc(b1-6)GalNAc
# How it was run: as §1
# [14] = target: GlcNAc6S(b1-3)Gal(b1-4)GlcNAc
# How it was run: as §1
# Kdn(a2-3)Gal(b1-3)GalNAc = target: Kdn(a2-3)Gal(b1-3)GalNAc
# How it was run: as §1
binder,measurement,setting,value
B1,glycan array binding signal (z-score),[1],0.24
same,glycan array binding signal (z-score),[2],1.82
same,glycan array binding signal (z-score),[3],1.74
same,glycan array binding signal (z-score),[4],0.145
same,glycan array binding signal (z-score),GlcNAc(b1-3)GalNAc,-0.469
same,glycan array binding signal (z-score),GlcNAc(b1-3)Man,-0.846
same,glycan array binding signal (z-score),[5],0.319
same,glycan array binding signal (z-score),[6],-0.369
same,glycan array binding signal (z-score),[7],0.275
same,glycan array binding signal (z-score),[8],0.1
same,glycan array binding signal (z-score),GlcNAc(b1-4)GlcNAc,0.486
same,glycan array binding signal (z-score),[9],-0.421
same,glycan array binding signal (z-score),[10],-0.713
same,glycan array binding signal (z-score),[11],0.678
same,glycan array binding signal (z-score),[12],-0.587
same,glycan array binding signal (z-score),[13],0.351
same,glycan array binding signal (z-score),GlcNAc(b1-6)GalNAc,0.4
same,glycan array binding signal (z-score),[14],-0.468
same,glycan array binding signal (z-score),Kdn(a2-3)Gal(b1-3)GalNAc,0.814

# 2 records drawn at random from those above:
binder,measurement,setting,value
B1,glycan array binding signal (z-score),[14],-0.468
same,glycan array binding signal (z-score),[11],0.678

# Source: the supplement of paper PMC8728848
